Screening data, single-dose tests

Amino acid sequences for entries named in this document (tags omitted). Residues count along the entry.
UniProt P9WNZ1, whole entry: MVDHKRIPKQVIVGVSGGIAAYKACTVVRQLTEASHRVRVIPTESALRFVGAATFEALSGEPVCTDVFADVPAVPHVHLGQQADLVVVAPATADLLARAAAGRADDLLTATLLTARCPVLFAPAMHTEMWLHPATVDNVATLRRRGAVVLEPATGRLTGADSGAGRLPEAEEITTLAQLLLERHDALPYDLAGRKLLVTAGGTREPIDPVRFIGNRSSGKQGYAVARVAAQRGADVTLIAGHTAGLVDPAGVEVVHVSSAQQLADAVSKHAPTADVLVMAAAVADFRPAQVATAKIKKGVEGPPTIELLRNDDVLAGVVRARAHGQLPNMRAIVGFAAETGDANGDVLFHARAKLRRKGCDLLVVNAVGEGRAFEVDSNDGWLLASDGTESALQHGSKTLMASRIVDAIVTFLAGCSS
UniProt I6X8D2, whole entry: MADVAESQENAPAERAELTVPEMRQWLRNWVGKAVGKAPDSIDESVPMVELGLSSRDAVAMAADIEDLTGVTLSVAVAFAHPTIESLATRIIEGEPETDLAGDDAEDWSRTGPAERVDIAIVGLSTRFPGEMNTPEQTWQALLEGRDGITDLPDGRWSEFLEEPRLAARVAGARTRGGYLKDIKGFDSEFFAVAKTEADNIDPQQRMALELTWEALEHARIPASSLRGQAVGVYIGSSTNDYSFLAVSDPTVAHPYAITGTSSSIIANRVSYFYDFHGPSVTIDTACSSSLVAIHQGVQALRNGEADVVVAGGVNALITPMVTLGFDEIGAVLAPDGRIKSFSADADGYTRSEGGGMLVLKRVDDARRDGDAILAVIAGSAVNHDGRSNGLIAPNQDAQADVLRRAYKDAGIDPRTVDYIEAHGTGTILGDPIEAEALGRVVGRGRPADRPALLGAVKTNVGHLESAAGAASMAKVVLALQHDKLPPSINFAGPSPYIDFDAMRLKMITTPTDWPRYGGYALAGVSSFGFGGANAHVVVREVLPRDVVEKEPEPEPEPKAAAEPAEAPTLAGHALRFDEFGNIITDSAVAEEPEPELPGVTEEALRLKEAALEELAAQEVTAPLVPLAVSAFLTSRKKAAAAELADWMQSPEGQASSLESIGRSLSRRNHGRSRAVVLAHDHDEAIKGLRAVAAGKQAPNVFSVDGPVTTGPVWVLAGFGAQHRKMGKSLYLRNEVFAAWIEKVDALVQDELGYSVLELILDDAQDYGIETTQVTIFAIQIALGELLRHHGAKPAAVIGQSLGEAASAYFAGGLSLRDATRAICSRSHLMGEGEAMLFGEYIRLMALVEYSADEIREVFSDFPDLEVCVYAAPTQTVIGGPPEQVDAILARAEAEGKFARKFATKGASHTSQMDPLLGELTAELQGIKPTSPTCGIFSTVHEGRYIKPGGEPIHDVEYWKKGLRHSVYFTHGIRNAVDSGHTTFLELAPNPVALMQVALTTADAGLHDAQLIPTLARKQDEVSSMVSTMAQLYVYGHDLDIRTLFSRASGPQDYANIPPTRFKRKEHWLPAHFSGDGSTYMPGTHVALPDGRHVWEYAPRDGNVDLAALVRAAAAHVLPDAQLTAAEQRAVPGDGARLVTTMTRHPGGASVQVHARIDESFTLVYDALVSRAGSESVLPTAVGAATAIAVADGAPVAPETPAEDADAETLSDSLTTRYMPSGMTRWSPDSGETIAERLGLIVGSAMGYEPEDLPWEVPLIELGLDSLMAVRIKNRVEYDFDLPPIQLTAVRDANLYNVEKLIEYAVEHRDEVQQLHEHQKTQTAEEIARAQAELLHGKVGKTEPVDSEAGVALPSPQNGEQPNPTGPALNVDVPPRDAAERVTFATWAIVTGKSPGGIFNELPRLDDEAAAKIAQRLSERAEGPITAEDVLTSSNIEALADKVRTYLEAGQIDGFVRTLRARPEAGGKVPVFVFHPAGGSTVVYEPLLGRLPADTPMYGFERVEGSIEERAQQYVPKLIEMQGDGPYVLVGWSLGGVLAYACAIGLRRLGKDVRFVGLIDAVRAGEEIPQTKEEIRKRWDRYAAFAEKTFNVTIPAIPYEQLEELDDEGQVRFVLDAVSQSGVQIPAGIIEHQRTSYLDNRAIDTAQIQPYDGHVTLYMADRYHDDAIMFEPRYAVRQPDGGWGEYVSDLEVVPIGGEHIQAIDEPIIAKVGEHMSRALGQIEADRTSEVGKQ
UniProt P9WPC5, whole entry: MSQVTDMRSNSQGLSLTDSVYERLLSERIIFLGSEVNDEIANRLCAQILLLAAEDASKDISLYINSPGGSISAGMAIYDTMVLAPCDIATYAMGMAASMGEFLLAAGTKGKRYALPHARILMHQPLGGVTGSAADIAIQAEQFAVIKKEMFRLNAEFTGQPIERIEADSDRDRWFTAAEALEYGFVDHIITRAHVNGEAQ
UniProt P9WPC3, whole entry partner: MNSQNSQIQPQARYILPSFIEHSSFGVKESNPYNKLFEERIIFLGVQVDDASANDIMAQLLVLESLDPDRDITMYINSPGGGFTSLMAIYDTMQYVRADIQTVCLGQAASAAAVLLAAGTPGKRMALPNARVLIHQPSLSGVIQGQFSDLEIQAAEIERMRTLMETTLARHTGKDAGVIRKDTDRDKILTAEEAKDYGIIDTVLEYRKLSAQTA
UniProt A4I591, 1-473: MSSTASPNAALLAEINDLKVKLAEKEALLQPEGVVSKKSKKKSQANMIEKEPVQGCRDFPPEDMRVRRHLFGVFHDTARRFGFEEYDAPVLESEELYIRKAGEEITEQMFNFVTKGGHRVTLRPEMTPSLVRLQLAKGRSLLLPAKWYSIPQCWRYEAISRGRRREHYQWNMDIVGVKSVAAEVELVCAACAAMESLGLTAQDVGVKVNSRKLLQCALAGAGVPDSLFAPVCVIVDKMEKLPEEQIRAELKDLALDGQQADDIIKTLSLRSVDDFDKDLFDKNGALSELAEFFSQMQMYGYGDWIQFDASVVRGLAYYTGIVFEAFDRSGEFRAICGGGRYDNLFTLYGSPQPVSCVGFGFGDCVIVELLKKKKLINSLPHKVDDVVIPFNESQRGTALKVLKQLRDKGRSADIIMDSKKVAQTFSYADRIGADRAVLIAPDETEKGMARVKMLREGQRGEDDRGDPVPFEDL
UniProt P9WFT3, whole entry: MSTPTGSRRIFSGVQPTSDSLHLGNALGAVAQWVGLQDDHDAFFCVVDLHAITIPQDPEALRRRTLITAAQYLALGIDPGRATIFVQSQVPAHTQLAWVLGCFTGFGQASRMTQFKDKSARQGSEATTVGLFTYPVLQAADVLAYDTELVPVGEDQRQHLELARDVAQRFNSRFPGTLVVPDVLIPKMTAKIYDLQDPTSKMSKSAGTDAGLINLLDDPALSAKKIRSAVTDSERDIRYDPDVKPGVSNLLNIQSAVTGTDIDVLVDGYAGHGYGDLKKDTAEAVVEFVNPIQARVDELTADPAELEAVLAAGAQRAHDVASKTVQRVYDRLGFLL

CoaBC: 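Enzyme assay of CoaBC with a phosphate dye (Biomol Green) read at 650 nm. Target: Coenzyme A biosynthesis protein CoaBC, Mycobacterium tuberculosis (UniProt P9WNZ1). Concentration: 30 µM. Higher reads as stronger inhibition, judged from the few compounds that gave an IC50. Most strong results did not repeat in a second test. Size under these conditions: about 67,000 compounds, about 40 of them at 50% or above in at least one test.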
Pks13 thioesterase: 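Enzyme assay of the thioesterase domain of polyketide synthase 13; the read-out is not stated. Target: Polyketide synthase Pks13, Mycobacterium tuberculosis (UniProt I6X8D2). Concentration: 30 µM. The record gives no direction; the compounds picked for IC50 retests had high values, so higher reads as stronger inhibition. Size under these conditions: about 67,000 compounds, about 300 of them at 50% or above in at least one test.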
ClpP1P2: 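Protease assay of ClpP1P2, read by the AMC dye that it sets free. Target: ClpP1P2, Mycobacterium tuberculosis (UniProt P9WPC5 and UniProt P9WPC3). Compounds at 50 µM. Direction is inferred from only a few compounds that gave an IC50; most scored high, so higher reads as stronger inhibition. Most other retested compounds had strongly negative values. About 69,000 compounds were tested under these conditions; 0.015% (about 10) showed 50% or more at least once.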
Toxoplasma: 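Assay of Toxoplasma gondii numbers, read through their beta-galactosidase reporter with a colour substrate. Tested at 10 µM. The record gives no direction; the compounds picked for IC50 retests had high values, so higher reads as fewer parasites. Size under these conditions: about 67,000 compounds, about 260 of them at 50% or above in at least one test.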
LiHisRS: 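Enzyme assay of histidyl-tRNA synthetase; the read-out is not stated. Target: Histidine-tRNA ligase, Leishmania infantum (UniProt A4I591). Tested at 30 µM. The record gives no direction; compounds that gave an IC50 in retests scored well above the rest, so higher reads as stronger inhibition. The assay is labelled LdHisRS but filed under L. infantum. Size under these conditions: about 69,000 compounds, about 410 of them at 50% or above in at least one test.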
MtTrpRS: 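Enzyme assay of tryptophanyl-tRNA synthetase; the read-out is not stated. Target: Tryptophan-tRNA ligase, Mycobacterium tuberculosis (UniProt P9WFT3). Tested at 10 µM. Direction is not recorded; retested compounds ran higher, which suggests that high means inhibition. Size under these conditions: about 65,000 compounds, about 64 of them at 50% or above in at least one test.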

Values are the deposited “Percent Effect”, in %.
The record does not define 0% and 100%; most values in the screen are far below 50% and negative numbers occur (in some assays of this library far below -100).
This is an unselected part of the compounds tested.

For CCc1cc(N2CCC(N[C@@H]3CS(=O)(=O)C[C@H]3O)CC2)nc(N(C)C)n1 the result was CoaBC: -0.2404%; ClpP1P2: -4.802%; Toxoplasma: -0.7115%; LiHisRS: 10.42%; MtTrpRS: 3.196%. Result for Cc1cc(NCC2CCS(=O)(=O)C2)n2nc(C)cc2n1 (centres undefined) was CoaBC: 6.464%; Pks13 thioesterase: -14.99%; ClpP1P2: -15.28%; Toxoplasma: -2.979%; LiHisRS: 44.3%; MtTrpRS: -2.569%. With COCc1cnc2n1CCN(Cc1cccnc1)C2C.O=C(O)C(F)(F)F.O=C(O)C(F)(F)F (centres undefined) the screen gave Toxoplasma: 2.671%. Cc1cccc(NC(=O)N2Cc3c(CN(C)C)nn(C)c3C2)c1 read CoaBC: -23.33%; Pks13 thioesterase: -33.44%; ClpP1P2: 3.268%; Toxoplasma: -17.36%; LiHisRS: 28.21%; MtTrpRS: -2.045%.

With CN(C)C(=O)N1C[C@@H]2CC[C@H](C1)N(C(=O)c1cccc(N(C)C)c1)C2 the screen gave CoaBC: 2.343%; Pks13 thioesterase: 0.3074%; ClpP1P2: -18.84%; LiHisRS: 4.839%; MtTrpRS: -4.204%. CCCC(NC(=O)c1cc(C)ccc1O)c1nnn[nH]1 (centres undefined) read CoaBC: 3.306%; Pks13 thioesterase: 3.403%; ClpP1P2: -12.64%; Toxoplasma: -4.535%; LiHisRS: -2.679%; MtTrpRS: -1.231%. Result for O=C(N[C@H]1CC[C@@]2(CCC(=O)N2CC2CC2)CC1)c1cnccn1 was CoaBC: -10.68%; Pks13 thioesterase: -16.19%; ClpP1P2: -2.47%; Toxoplasma: -5.436%; LiHisRS: -130.8%; MtTrpRS: -1.89%. With Cc1noc(CN(C)Cc2ccc3c(c2)OCO3)n1 the screen gave CoaBC: 16.89%; Pks13 thioesterase: -16.69%; ClpP1P2: -3.926%; Toxoplasma: 1.637%; LiHisRS: 1.786%; MtTrpRS: 4.172%.

With CNC(=O)[C@@H]1C[C@H]2CN(Cc3csc(C)n3)C[C@H]2N1C(C)C the screen gave CoaBC: 2.061%; Pks13 thioesterase: 8.986%; ClpP1P2: -4.02%; LiHisRS: 17.31%. CC(=O)Nc1nc(C(=O)N2CCCC(c3cc(C)[nH]n3)C2)cs1 (centres undefined) gave CoaBC: -21.87%; Pks13 thioesterase: -6.168%; ClpP1P2: 1.244%; Toxoplasma: 0.3139%; LiHisRS: 10.61%; MtTrpRS: -0.09747%. For O=C(Nc1ccc(CCN2CCOCC2)cc1)C1CCCC1 the result was CoaBC: 4.608%; Pks13 thioesterase: -7.631%; ClpP1P2: -24.35%; Toxoplasma: 19.92%; LiHisRS: 18.35%; MtTrpRS: -0.1935%. With O=C(NC1CCCCC1)NC1CCCc2c1cnn2CCO (centres undefined) the screen gave CoaBC: 8.678%; Pks13 thioesterase: -14.2%; ClpP1P2: 4.552%; Toxoplasma: 6.86%; LiHisRS: 18.75%; MtTrpRS: 3.259%.

For Cc1cc(C(C)NC(=O)c2ccc(O)nc2)c(C)o1 (centres undefined) the result was Pks13 thioesterase: -33.1%; ClpP1P2: 7.478%; Toxoplasma: 2.265%; LiHisRS: 18.31%; MtTrpRS: 4.137%. For CN(C)CCNC(=O)c1ccn(-c2ccc3ccccn23)n1 the result was CoaBC: -36.55%; Pks13 thioesterase: -11.46%; ClpP1P2: 0.8145%; LiHisRS: 18.18%; MtTrpRS: -8.718%. COc1ccc2nc(C)c(C(=O)NCCN3CCS(=O)(=O)CC3)cc2c1 gave CoaBC: 2.893%; Pks13 thioesterase: -13.84%; ClpP1P2: 12.83%; Toxoplasma: 1.436%; LiHisRS: 9.333%; MtTrpRS: -4.156%. For CC(C)Nc1ncccc1C(=O)NCc1ncc[nH]1 the result was CoaBC: 1.222%; Pks13 thioesterase: -27.2%; ClpP1P2: -17.97%; Toxoplasma: 16.69%; LiHisRS: 13.7%; MtTrpRS: -0.149%.

For NC1CCCN(Cc2cccc(C(F)(F)F)c2)C1=O (centres undefined) the result was CoaBC: 4.893%; Pks13 thioesterase: 17.77%; ClpP1P2: -9.693%; Toxoplasma: -4.829%; LiHisRS: 13.25%; MtTrpRS: 0.6121%. CCc1nc(N2CCCC(CCCOC)C2)c2cnn(C)c2n1 (centres undefined) gave CoaBC: 2.651%; Pks13 thioesterase: 12.92%; ClpP1P2: -0.6291%; Toxoplasma: -14.82%; LiHisRS: 20.88%; MtTrpRS: -0.1942%. With CCn1nc(CC(C)C)cc1C(=O)N1CCCOC(CN2CCCC2)C1 (centres undefined) the screen gave CoaBC: 10.28%; Pks13 thioesterase: -13.7%; ClpP1P2: 3.078%; Toxoplasma: -7.564%; LiHisRS: 18.18%; MtTrpRS: -1.816%. For [H][C@@]12CN(S(C)(=O)=O)C[C@]1([H])OCC(=O)N2CC1CCC1 the result was Toxoplasma: -5.019%.

Result for Cc1cnc(CNC(=O)C[C@@H]2COC[C@H]3CN(C4CCC4)C[C@@H]23)cn1 was Pks13 thioesterase: -14.97%; ClpP1P2: 3.504%; LiHisRS: 11.97%; MtTrpRS: 4.167%.

For reference, 2 entries once more:

Result for CNC(=O)[C@@H]1C[C@H]2CN(Cc3csc(C)n3)C[C@H]2N1C(C)C was CoaBC: 2.061%; Pks13 thioesterase: 8.986%; ClpP1P2: -4.02%; LiHisRS: 17.31%.
Result for CC(=O)Nc1nc(C(=O)N2CCCC(c3cc(C)[nH]n3)C2)cs1 (centres undefined) was CoaBC: -21.87%; Pks13 thioesterase: -6.168%; ClpP1P2: 1.244%; Toxoplasma: 0.3139%; LiHisRS: 10.61%; MtTrpRS: -0.09747%.

Measurements from “University of Dundee, Small-Polar-MMV Screening Library” (2021), ChEMBL document CHEMBL3988442.